From PubChem BioAssay AID1439 (NMMLSC, 2008)
Among all 220,000 compounds or so, about 770 (0.35%) were called active. Inconclusive means that the source gave no clear call. Such entries were picked first, then a sample of the others. Cut-off read from the data, not from the text of the source: active = binding response below about 49% or above about 150%; inconclusive = no clear call, values can overlap the other calls; inactive = in between.

By UniProt entry, the sequences of proteins in these tests, tags left out.
UniProt P09471, whole entry, looked up: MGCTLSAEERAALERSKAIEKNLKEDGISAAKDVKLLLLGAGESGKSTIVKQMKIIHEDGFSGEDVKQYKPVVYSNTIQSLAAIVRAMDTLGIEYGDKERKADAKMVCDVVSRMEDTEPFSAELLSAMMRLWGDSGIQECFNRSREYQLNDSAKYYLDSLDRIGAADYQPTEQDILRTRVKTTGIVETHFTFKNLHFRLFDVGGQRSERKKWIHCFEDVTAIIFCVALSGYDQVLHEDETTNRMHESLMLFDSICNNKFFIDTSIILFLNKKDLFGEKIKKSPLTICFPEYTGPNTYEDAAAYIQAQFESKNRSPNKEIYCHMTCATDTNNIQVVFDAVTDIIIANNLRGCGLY

target: Guanine nucleotide-binding protein G(o) subunit alpha (Homo sapiens) (UniProt P09471); experiment: RGS7-Galphao binding modulators, primary screen, biochemical, multiplexed bead flow cytometry (AID 1439); conditions: at 10 µM, actives lie on both sides;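 note: fluorescent Galphao held in activated GDP-AlF4 state binding bead-coupled RGS7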

Question: For Cc1cc2nc3n(c2cc1C)CC1CC(C(=O)NCCc2cccs2)N(C)C31 (centres undefined), which binding response (% of control) is on record?
Answer: inconclusive: 104%

Question: COC(=O)C1=COC(OC2OC(CO)C(O)C(O)C2O)C2C1C=CC2(O)CO (centres undefined) was tested. Which binding response (% of control) did it give?
Answer: inconclusive: 93.4%

Question: For CC(C)(C)C(=O)Nc1ccc(-c2cnco2)cc1, which binding response (% of control) is on record?
Answer: inconclusive: 359%

Question: How did the binding response (% of control) turn out when Cc1ccc(NC(=O)C(=O)NCC2CCCO2)cc1C (centres undefined) was run?
Answer: inconclusive: 103%

Question: Which binding response (% of control) does the source give for CCC1CCCCN1C(=S)Nc1cccc(S(=O)(=O)N(C)C)c1 (centres undefined) here?
Answer: inconclusive: 125%

Question: How did the binding response (% of control) turn out when COc1ccc(C(Nc2cc(C)ccn2)c2ccc3ccc(C)nc3c2O)cc1 (centres undefined) was run?
Answer: inconclusive: 87.5%

Question: COc1ccc(CCNC(=O)c2ccc([N+](=O)[O-])cc2)cc1 was tested. Which binding response (% of control) did it give?
Answer: inconclusive: -1.23%

Question: How did the binding response (% of control) turn out when C=CCn1c(=O)c2c(nc3n2CCS3)n(C)c1=O was run?
Answer: inactive: 107%

Question: Which binding response (% of control) does the source give for CSc1cccc(NC(N)=O)c1 here?
Answer: inconclusive: 26.2%

Question: For O=C(Nc1cc(C(F)(F)F)ccc1Cl)C(Sc1n[nH]c(=O)[nH]c1=O)c1ccccc1 (centres undefined), which binding response (% of control) is on record?
Answer: inconclusive: 354%

Question: How did the binding response (% of control) turn out when COc1ccc(Cc2nc3c4c(ncn3n2)Oc2ccc3ccccc3c2C4c2ccc(OC)c(OC)c2)cc1 (centres undefined) was run?
Answer: inactive: 102%

Question: Which binding response (% of control) does the source give for Cc1ccc(C)c(C(=O)Nc2cc(C)nn2-c2nc(C)cc(C)n2)c1 here?
Answer: inconclusive: 92.3%

Question: Which binding response (% of control) does the source give for Cc1c(NS(=O)(=O)c2ccc(Cl)c(C(=O)OC(C)C(=O)NCc3ccco3)c2)c(=O)n(-c2ccccc2)n1C (centres undefined) here?
Answer: inactive: 94.2%

Question: For COc1cc(Nc2ccccn2)cc(C(=O)Nc2cccc(C(F)(F)F)c2)c1, which binding response (% of control) is on record?
Answer: inconclusive: 98.7%

Question: C#CCOCCOCCOCCNc1nc(N2CCN(C(=O)Cn3cc(CCO)nn3)CC2)nc(N2CCN(C(=O)[C@H](C(C)C)n3cc(CCO)nn3)CC2)n1 was tested. Which binding response (% of control) did it give?
Answer: inactive: 94.3%

Question: For COc1ccc(-c2cc3ccccc3n2CC(O)CN2CCC(C)CC2)cc1 (centres undefined), which binding response (% of control) is on record?
Answer: inconclusive: 117%

Question: Which binding response (% of control) does the source give for O=C(COc1ccc(-c2ccccc2)cc1)NN=C1CCCC1 here?
Answer: inactive: 108%

Question: How did the binding response (% of control) turn out when COc1ccc2nccc(C(N)=O)c2c1 was run?
Answer: inconclusive: 84.6%

Question: Cc1cc2[nH]ncc2cc1NC(N)=S was tested. Which binding response (% of control) did it give?
Answer: inconclusive: 111%

Question: O=C(CSc1n[nH]c(=O)n1C1CC1)NCc1ccccc1 was tested. Which binding response (% of control) did it give?
Answer: inconclusive: 83.9%

Question: For CCCCN1CC(O)=C(c2nc(-c3ccc(Br)cc3)cs2)C1=N, which binding response (% of control) is on record?
Answer: inconclusive: 118%

Question: NC(=NC(=O)c1cccc(C(F)(F)F)c1)c1ccc(C(F)(F)F)cn1 was tested. Which binding response (% of control) did it give?
Answer: inconclusive: 129%

Question: How did the binding response (% of control) turn out when COc1ccc(Cc2nnc(N/N=C/c3ccc(O)cc3O)[nH]c2=O)cc1OC was run?
Answer: inactive: 101%

Question: CC(=O)CC1(O)C(=O)Nc2ccccc21 (centres undefined) was tested. Which binding response (% of control) did it give?
Answer: inconclusive: 71.9%

Question: For CCN(CC)CCCN(Cc1cc2cc3c(cc2[nH]c1=O)OCCO3)C(=O)Nc1ccccc1, which binding response (% of control) is on record?
Answer: inactive: 106%

Question: CN(C)CCNC(=O)C(c1ccccc1)c1ccccc1 was tested. Which binding response (% of control) did it give?
Answer: inconclusive: 87.6%

Question: With CCOC(=O)c1ccc(NC(=S)N2CCN(CCN=CC3=C(O)CC(c4ccccc4)CC3=O)CC2)cc1 (centres undefined) as the compound, how does the binding response (% of control) read?
Answer: inconclusive: -67.6%

Question: Which binding response (% of control) does the source give for CC(C)c1nc2sc3c(SCC(N)=O)ncnc3c2c2c1CCC2 here?
Answer: inconclusive: 68.8%

Question: CN(C)c1nc(N)c2ncc(=S)[nH]c2n1 was tested. Which binding response (% of control) did it give?
Answer: inconclusive: 86.6%

Question: Cc1cc(Cl)ccc1-n1c(-c2cccnc2)n[nH]c1=S was tested. Which binding response (% of control) did it give?
Answer: inconclusive: 13.9%

Question: With NC(=O)c1ccccc1OC1CCC1 as the compound, how does the binding response (% of control) read?
Answer: inconclusive: 118%

Question: Cc1cccc(OCC(=O)Nc2ccc(C(=O)NCC(C)C)cc2)c1 was tested. Which binding response (% of control) did it give?
Answer: inconclusive: 122%

Question: O=c1[nH]c(CN2CCN(S(=O)(=O)c3cccs3)CC2)nc2c(Br)cc(Br)cc12 was tested. Which binding response (% of control) did it give?
Answer: inconclusive: 100%

Question: For CCOc1ccc(/C=C2\SC(=S)N(CCC(=O)O)C2=O)cc1, which binding response (% of control) is on record?
Answer: inconclusive: 177%

Question: How did the binding response (% of control) turn out when Cc1cc2cc(C)c3nnc(SCC(=O)N4CCc5ccccc54)n3c2cc1C was run?
Answer: active: 14.4%

Question: For CC(NC(=O)CN1CCc2ccccc21)c1ccccc1 (centres undefined), which binding response (% of control) is on record?
Answer: inactive: 101%

Question: CC1(C)Cc2nc3[nH]c(=S)[nH]c(=O)c3cc2CO1 was tested. Which binding response (% of control) did it give?
Answer: inconclusive: 95.2%

Question: Which binding response (% of control) does the source give for O=C(O)c1ccc(OCC(F)(F)F)nc1 here?
Answer: inconclusive: 97.6%

Question: For O=C(Nc1cccnc1Oc1ncnc2cc(Cl)ccc12)c1ccc(F)cc1, which binding response (% of control) is on record?
Answer: inconclusive: 94.1%

Question: With CC(C)(C)NC(=O)COC(=O)c1cc(Cl)ccc1[N+](=O)[O-] as the compound, how does the binding response (% of control) read?
Answer: inconclusive: 97.7%

Question: Which binding response (% of control) does the source give for O=C(CCSc1ccc(Cl)cc1)Nc1cccnc1 here?
Answer: inactive: 98.2%

Question: CC1CCN(Cc2c(C(=O)O)nnn2-c2nonc2N)CC1 was tested. Which binding response (% of control) did it give?
Answer: inactive: 97.5%

Question: How did the binding response (% of control) turn out when OCC(Cc1ccc2c(c1)OCO2)C(CO)Cc1ccc2c(c1)OCO2 (centres undefined) was run?
Answer: inconclusive: 82.9%

Question: For COc1ccc(NC(=O)CCNS(=O)(=O)c2ccc(Br)s2)cc1, which binding response (% of control) is on record?
Answer: inactive: 102%

Question: With CCCCC12CN3CC(C)(CN(C1)C3c1ccc([N+](=O)[O-])o1)C2=O (centres undefined) as the compound, how does the binding response (% of control) read?
Answer: inconclusive: 113%

Question: For CC1C2Cn3c(nc4ccccc43)C1N(C(C)C)O2 (centres undefined), which binding response (% of control) is on record?
Answer: inconclusive: 113%

Question: For C=C1C(C(=O)Nc2ccccc2)C1C(=O)Nc1ccccc1 (centres undefined), which binding response (% of control) is on record?
Answer: inconclusive: 126%

Question: Which binding response (% of control) does the source give for CCSc1nnc(NC(=O)C(CC)(C(F)(F)F)C(F)(F)F)s1 here?
Answer: inactive: 101%

Question: With CCOc1cc(C2c3c(oc4ccccc4c3=O)C(=O)N2c2nccs2)ccc1O (centres undefined) as the compound, how does the binding response (% of control) read?
Answer: inconclusive: 97.6%

Question: How did the binding response (% of control) turn out when O=C1COc2ccc(C(=O)COC(=O)/C=C/c3cccc(F)c3)cc2N1 was run?
Answer: inconclusive: 151%

Question: Which binding response (% of control) does the source give for CCOc1cc(S(=O)(=O)NCc2cccnc2)c(C)cc1C here?
Answer: inactive: 88.6%

Question: Cc1cc(NC(=O)C2CCCCC2)n(-c2nc3ccccc3[nH]2)n1 was tested. Which binding response (% of control) did it give?
Answer: inactive: 99%

Question: O=C(NCc1csc(-c2cccs2)n1)c1ccccc1 was tested. Which binding response (% of control) did it give?
Answer: inconclusive: 131%

Question: With Cc1cc(C)cc(NC(=O)c2snc3c(=O)[nH]cnc23)c1 as the compound, how does the binding response (% of control) read?
Answer: inactive: 83%

Question: COc1cc(NC(=O)c2nccn2C)cc(C(=O)Nc2cccc(C(F)(F)F)c2)c1 was tested. Which binding response (% of control) did it give?
Answer: inconclusive: 101%

Question: CN(CCO)C(=O)c1cccc2c1-c1ccccc1C2=O was tested. Which binding response (% of control) did it give?
Answer: inactive: 104%

Question: How did the binding response (% of control) turn out when Cc1cc(S(N)(=O)=O)c(N)c(S(N)(=O)=O)c1 was run?
Answer: inconclusive: 97.5%

Question: With Cc1cc(-c2cc(C(=O)NCc3ccccc3)on2)nc(NC2CCCC2)n1 as the compound, how does the binding response (% of control) read?
Answer: inconclusive: 87.4%

Question: NNc1nc(-c2ccccc2)c2cc(Cl)ccc2n1 was tested. Which binding response (% of control) did it give?
Answer: inconclusive: 108%
